{"source": "paper PMC4434903", "molecular_target": "T1, MKK5 fused to a half of Renilla luciferase (UniProt Q8RXG3)", "T1 sequence": "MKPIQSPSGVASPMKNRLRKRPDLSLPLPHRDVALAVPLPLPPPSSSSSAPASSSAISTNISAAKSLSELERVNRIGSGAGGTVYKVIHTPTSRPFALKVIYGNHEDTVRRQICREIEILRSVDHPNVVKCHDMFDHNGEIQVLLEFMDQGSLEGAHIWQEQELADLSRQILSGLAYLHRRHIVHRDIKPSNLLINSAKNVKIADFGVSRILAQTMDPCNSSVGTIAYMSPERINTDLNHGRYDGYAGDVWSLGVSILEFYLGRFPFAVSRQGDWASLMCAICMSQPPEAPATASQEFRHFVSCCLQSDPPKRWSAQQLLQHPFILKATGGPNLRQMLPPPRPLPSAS", "assay": "split reporter; split Renilla luciferase complementation in Arabidopsis protoplasts co-transformed with NLuc and CLuc fusions; luminescence read 12-16 h after transformation; with or without 100 or 200 uM SA (3 h)", "note": "No constants are given. Whether binding was seen depends on the method and setting. Binding seen in cells or lysates may run through a third protein. Binding can be weak; no strength is given. Sequences can lack the tags named with a protein.", "data": [{"substance": "HopF2 fused to a half of Renilla luciferase", "values": [{"measurement": "binding", "value": "binds"}]}]}
